The text below walks through data of paper PMC7862700.

Amino acid sequences for entries named in this document (tags omitted). A change or cut given only in a name is not applied to a line headed by its entry.
UniProt Q01892: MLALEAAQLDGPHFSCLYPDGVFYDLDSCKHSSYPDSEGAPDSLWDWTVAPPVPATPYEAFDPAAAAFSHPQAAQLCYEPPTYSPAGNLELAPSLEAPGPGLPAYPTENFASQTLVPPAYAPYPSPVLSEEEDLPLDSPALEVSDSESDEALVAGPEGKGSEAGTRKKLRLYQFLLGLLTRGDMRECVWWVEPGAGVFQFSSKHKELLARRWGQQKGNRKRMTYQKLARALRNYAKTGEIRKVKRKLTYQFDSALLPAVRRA

The list shows a part of the results, in another mix than the full data. At the low end of the ranking, values are background and their order means little.

This assay deals with SPIB (UniProt Q01892). Nature of the assay: DAPPL (digital affinity profiling via proximity ligation, sequencing). Particulars: 10 mM Tris-HCl pH 7.5, 50 mM NaCl, 1 mM DTT, 4% glycerol, room temperature, 30 min; GST-TFs on glutathione beads, 16-mer random dsDNA library, 0.1% …; high values mean tight binding; double strand, one strand shown; scale: fold enrichment (6-mer frequency, TF over GST control).
On to CCTTGG, for which the binding signal amounted to 1.32.

ACGTTA had a binding signal of 1.06.

Turning to GCGATG, the binding signal is 1.29.

Consider TACATG, for which the binding signal was 1.16.

In the case of TAACAT, the binding signal turned out to be 1.27.

Turning to AAATTT, the binding signal stood at 1.45.

CAATCC: the binding signal came out at 1.2.

In turn, CGCTCC displayed a binding signal of 1.36.

In turn, TTTAGG yielded a binding signal of 1.15.

As for TAACCT, the binding signal was 1.31.

For the sequence GTCCTA, the binding signal is 1.18.

Consider TGTCCA, for which the binding signal stood at 1.13.

As to ACTTTC, the binding signal stood at 1.7.

With GCCTTC, the binding signal worked out at 1.54.

In turn, ACATAT had a binding signal of 1.2.

Sequence ATACGT returned a binding signal of 1.13.

For the sequence TTCGAA, the binding signal was 1.12.

On to TGGCTA, for which the binding signal came to 1.31.

ATCATA showed a binding signal of 1.18.

In turn, GGTATT came in with a binding signal of 1.2.

TTGCGG returned a binding signal of 1.2.

ATGTCC: the binding signal came out at 1.55.

CTTTTA returned a binding signal of 1.35.

ATTAGC: the binding signal was found to be 1.03.

Turning to ACGAAC, the binding signal turned out to be 1.22.

Sequence ATCTGT yielded a binding signal of 1.14.

In turn, CTAAAG showed a binding signal of 1.31.

In turn, CCTAAA gave a binding signal of 1.26.

Sequence GCTCGC came in with a binding signal of 1.42.

As to TATTCT, the binding signal came to 1.19.

As for TATGGC, the binding signal was found to be 1.18.

Regarding CGATTC, the binding signal was determined as 1.24.

In the case of TGTTAT, the binding signal came out at 1.31.

For GTAAAA, the binding signal turned out to be 1.1.

As for TATAAC, the binding signal was 1.39.

The sequence TGAAAA registered a binding signal of 0.978.

Consider CTTGGT, for which the binding signal was 1.57.

On to AATAGC, for which the binding signal stood at 1.16.
